Source: patent publication US11246946B2, “Methods of treatment using ultrasmall nanoparticles to induce cell death of nutrient-deprived cancer cells via ferroptosis” (priority 2015, dated 2022)
For at least one compound, name, drawing or mass did not settle the structure.

Experiments:
[1] = test system: MCF10A human mammary epithelial cells; assay: Cell death (Sytox green+) by time-lapse microscopy, MCF10A; type: cell-based; conditions: AA-st plus 15 μM α-MSH-PEG-C′ dots, 100 μM DFO, 38 hours
Method: MEF and HT1080 cells were cultured in Dulbecco's modified Eagle's medium (DMEM) (MSKCC Media Preparation Facility) supplemented with 10% fetal bovine serum (FBS, Sigma, St. Louis, Mo.) with penicillin/streptomycin (Corning, Corning, N.Y.). MCF10A cells were cultured in DMEM/F12 (Gibco, Grand Island, N.Y.) supplemented with 5% horse serum (Atlanta Biologicals, Flowery Branch, Ga.), 20 ng/ml EGF (Peprotech, Rocky Hill, N.J.), 10 μg/ml insulin (Sigma), 0.5 μg/ml hydrocortisone (Sigma), and 100 ng/ml cholera toxin (Sigma) with penicillin/streptomycin. M21, BxPC3, H1650, and 786-O cells were cultured in RPMI-1640 (Gibco) supplemented with 10% FBS with penicillin/streptomycin. SKOV3 cells were cultured in McCoy's 5a modified medium (Gibco) supplemented with 10% FBS with penicillin/streptomycin. Amino acid-free medium was prepared by dialyzing heat-inactivated FBS (for MEF, HT1080, M21, BxPC3, H1650, and SKOV3 cells) or horse serum (for MCF10A cells) for 4 h, followed by overnight incubation at 4° C. in phosphate-buffered saline (PBS) in MWCO 3500 dialysis tubing (21-152-9; Fisherbrand, Pittsburgh, Pa.) and addition to base media prepared without amino acids. PRetro-Lamp1-GFP was introduced into M21 cells by retroviral transduction, and stable cell lines were selected with puromycin (2 μg ml^−1).
NIS Elements software (Nikon, Melville, N.Y.) was used.

[2] = test system: ferritin heavy chain (FTH1); assay: Ferritin heavy chain western blot; type: cell-based; conditions: amino acid-starved cells, 24 hours; 15 μM particles, FAC 400 μM, DFO 100 μM
[3] = test system: HT1080 fibrosarcoma cells; assay: Cell death (Sytox green+) by time-lapse microscopy, HT1080; type: cell-based, human; conditions: HT-1080, erastin pre-treatment 4 hours

Row | Compound | effect on nanoparticle-induced cell death [1] | ferritin heavy chain (FTH1) expression [2] | cell death after erastin pre-treatment alone ([3]; no further treatment) | sensitization to nanoparticle-induced ferroptosis ([3]; then AA-st plus 15 μM α-MSH-PEG-C′ dots, 18 and 24 hours)
1 | CC(=O)N(O)CCCCCNC(=O)CCC(=O)N(O)CCCCCNC(=O)CCC(=O)N(O)CCCCCN [deferoxamine, Deferoxamine] | almost completely inhibited cell death | decreased | – | –
2 | CCOc1ccccc1-n1c(C(C)N2CCN(C(=O)COc3ccc(Cl)cc3)CC2)nc2ccccc2c1=O (stereo not shown) [erastin, Erastin] | – | – | does not induce cell death on its own | sensitizes to nanoparticle-induced ferroptosis
